Experimental data as given in PMC5348329.

Biological target: GST-C terminal of beta-catenin
Test: pull-down; purified GST fusions of beta-catenin (full length, C terminal, N terminal) with 7404 cell lysate; only the target purified

binding: binds
B1: CARF (endogenously expressed) (protein, UniProt Q9NXV6 1-580)
chain: MAQEVSEYLSQNPRVAAWVEALRCDGETDKHWRHRRDFLLRNAGDLAPAGGAASASTDEAADAESGTRNRQLQQLISFSMAWANHVFLGCRYPQKVMDKILSMAEGIKVTDAPTYTTRDELVAKVKKRGISSSNEGVEEPSKKRVIEGKNSSAVEQDHAKTSAKTERASAQQENSSTCIGSAIKSESGNSARSSGISSQNSSTSDGDRSVSSQSSSSVSSQVTTAGSGKASEAEAPDKHGSASFVSLLKSSVNSHMTQSTDSRQQSGSPKKSALEGSSASASQSSSEIEVPLLGSSGSSEVELPLLSSKPSSETASSGLTSKTSSEASVSSSVAKNSSSSGTSLLTPKSSSSTNTSLLTSKSTSQVAASLLASKSSSQTSGSLVSKSTSLASVSQLASKSSSQTSTSQLPSKSTSQSSESSVKFSCKLTNEDVKQKQPFFNRLYKTVAWKLVAVGGFSPNVNHGELLNAAIEALKATLDVFFVPLKELADLPQNKSSQESIVCELRCKSVYLGTGCGKSKENAKAVASREALKLFLKKKVVVKICKRKYRGSEIEDLVLLDEESRPVNLPPALKHPQELL

These are yes or no findings as the source states them, for the method shown. In cells and extracts the contact can be indirect. Binding can be weak; no strength is given.
